The text below walks through data of patent US20220380455A1.

The experiment addresses T1, MS4A6A ECL2 peptide (human).
T1 sequence (peptide): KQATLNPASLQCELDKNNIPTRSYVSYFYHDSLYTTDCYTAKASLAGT
The experiment can be described thus: array SPR (Carterra MX-96); Carterra SPR traces: weak signal, no KD fitted; also positive by ELISA. Background: ELISA stands for enzyme-linked immunosorbent assay.

No constants are given. Whether binding was seen depends on the method and setting. Some entries that bind do so weakly or less than the wild type.

B1: 6A-6 (antibody, V domains shown)
VH: QIQLVQSGPELKKPGESVKISCKASGYTFANYGMNWVKLAPGKGLKWMGYINIYSGKSRYADDFKGRFAFSLETSASTAYLQINNLKNEDMATYFCARDNDYFDYWGQGTTLTVSS
VL: DIVLTQSPATLSVTPGDTVSLSCRASQSISDNLHWYQQKSHESPGLLIKYASQSISGIPSRFSGRGSGTDFTLSINSVDSEDFGVYFCQQSNSWPYTFGGGTKLEIK
B1: the binding entry is reported as “binds”.
